Source: article doi:10.1101/2019.12.20.885558
Results are given in words; binding and its absence hold for the method and conditions named. In cells and extracts the contact can be indirect. A yes stands for co-enrichment or nearness to the bait. Other partners may have been found.

Chains of the proteins cited; added tags and fusions are not shown.
UniProt P55884: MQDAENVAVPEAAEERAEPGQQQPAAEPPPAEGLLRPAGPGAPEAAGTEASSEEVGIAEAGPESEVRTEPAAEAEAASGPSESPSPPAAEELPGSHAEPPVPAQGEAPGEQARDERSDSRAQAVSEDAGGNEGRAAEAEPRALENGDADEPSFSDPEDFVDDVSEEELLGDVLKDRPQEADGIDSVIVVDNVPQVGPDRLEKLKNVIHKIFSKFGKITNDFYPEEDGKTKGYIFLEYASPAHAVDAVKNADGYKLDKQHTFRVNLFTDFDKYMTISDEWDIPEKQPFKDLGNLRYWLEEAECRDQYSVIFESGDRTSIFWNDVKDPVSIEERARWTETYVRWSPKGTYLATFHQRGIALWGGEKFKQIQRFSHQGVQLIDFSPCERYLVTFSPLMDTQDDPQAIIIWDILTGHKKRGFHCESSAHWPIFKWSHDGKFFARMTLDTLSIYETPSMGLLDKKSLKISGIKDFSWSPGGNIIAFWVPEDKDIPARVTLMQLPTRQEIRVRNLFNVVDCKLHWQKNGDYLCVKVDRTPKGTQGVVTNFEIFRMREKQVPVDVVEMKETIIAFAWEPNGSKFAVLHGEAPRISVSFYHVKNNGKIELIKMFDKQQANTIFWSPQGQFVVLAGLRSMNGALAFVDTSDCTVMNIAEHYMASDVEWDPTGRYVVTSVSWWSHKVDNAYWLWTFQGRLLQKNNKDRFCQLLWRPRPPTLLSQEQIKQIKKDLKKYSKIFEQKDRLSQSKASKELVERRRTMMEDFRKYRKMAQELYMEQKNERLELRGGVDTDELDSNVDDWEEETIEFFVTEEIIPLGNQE
UniProt O15371: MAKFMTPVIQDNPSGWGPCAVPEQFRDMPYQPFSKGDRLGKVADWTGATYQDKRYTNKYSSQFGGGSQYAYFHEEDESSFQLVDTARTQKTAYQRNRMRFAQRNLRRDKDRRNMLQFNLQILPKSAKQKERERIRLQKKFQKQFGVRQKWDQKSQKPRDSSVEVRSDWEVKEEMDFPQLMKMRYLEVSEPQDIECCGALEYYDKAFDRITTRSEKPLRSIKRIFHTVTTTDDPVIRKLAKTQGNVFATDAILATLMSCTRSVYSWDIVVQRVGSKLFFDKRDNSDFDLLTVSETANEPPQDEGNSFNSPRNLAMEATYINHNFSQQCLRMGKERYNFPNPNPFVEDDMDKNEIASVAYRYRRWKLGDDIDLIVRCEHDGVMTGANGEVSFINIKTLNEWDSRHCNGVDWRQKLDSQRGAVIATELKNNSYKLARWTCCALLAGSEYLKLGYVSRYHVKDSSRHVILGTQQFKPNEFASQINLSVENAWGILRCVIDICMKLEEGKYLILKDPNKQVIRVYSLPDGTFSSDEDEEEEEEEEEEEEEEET
UniProt O00303: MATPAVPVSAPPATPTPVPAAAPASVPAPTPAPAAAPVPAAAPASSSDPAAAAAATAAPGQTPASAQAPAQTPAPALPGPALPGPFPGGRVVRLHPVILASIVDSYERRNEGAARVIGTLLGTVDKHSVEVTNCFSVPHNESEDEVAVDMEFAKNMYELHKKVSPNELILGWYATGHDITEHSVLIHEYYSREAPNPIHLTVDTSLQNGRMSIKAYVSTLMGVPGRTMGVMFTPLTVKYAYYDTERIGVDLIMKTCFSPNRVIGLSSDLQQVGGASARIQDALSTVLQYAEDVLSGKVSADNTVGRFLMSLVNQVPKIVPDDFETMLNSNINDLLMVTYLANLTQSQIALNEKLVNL

Biological target: eukaryotic initiation factor 3 subunit EIF3B (human (endogenous in Jurkat)) (UniProt P55884)
Experiment: affinity purification with mass spectrometry

Row | Substance | binding
1 | eukaryotic initiation factor 3 subunit EIF3D (from UniProt O15371 1-548) | binds
2 | eukaryotic initiation factor 3 subunit EIF3F (from UniProt O00303 1-357) | binds
